From article PMC4117747, “The N-terminus of Mcm10 is important for interaction with the 9-1-1 clamp and in resistance to DNA damage” (Nucleic Acids Research, 2014)
Results are given in words; binding and its absence hold for the method and conditions named. Some entries that bind do so weakly or less than the wild type. Tags and fused reporters may be left off the sequences shown.

Key:
Test in all cases: two-hybrid; yeast two-hybrid with pBTM116 (LexA) and pACT2 fusions; β-galactosidase activity in cell extracts, in triplicate from at least three clones
[1] = biological target: T1, Mcm10Δ50 (LexA fusion) (S. cerevisiae) (UniProt P32354)
T1 sequence: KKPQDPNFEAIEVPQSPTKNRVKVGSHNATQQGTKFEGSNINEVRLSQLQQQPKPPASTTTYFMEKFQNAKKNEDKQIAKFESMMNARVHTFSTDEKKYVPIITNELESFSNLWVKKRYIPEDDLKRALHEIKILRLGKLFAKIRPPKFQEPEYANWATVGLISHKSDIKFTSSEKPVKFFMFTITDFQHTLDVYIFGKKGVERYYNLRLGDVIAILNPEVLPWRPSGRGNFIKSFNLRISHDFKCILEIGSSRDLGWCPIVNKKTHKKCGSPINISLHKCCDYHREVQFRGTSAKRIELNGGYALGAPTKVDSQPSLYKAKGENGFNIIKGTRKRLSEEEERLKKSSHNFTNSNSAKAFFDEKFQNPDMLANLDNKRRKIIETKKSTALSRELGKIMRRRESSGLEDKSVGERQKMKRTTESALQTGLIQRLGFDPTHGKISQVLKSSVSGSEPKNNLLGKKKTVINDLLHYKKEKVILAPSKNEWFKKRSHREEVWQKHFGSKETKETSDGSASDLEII

[2] = biological target: T2, Mcm10Δ140 (LexA fusion) (S. cerevisiae) (UniProt P32354)
T2 sequence: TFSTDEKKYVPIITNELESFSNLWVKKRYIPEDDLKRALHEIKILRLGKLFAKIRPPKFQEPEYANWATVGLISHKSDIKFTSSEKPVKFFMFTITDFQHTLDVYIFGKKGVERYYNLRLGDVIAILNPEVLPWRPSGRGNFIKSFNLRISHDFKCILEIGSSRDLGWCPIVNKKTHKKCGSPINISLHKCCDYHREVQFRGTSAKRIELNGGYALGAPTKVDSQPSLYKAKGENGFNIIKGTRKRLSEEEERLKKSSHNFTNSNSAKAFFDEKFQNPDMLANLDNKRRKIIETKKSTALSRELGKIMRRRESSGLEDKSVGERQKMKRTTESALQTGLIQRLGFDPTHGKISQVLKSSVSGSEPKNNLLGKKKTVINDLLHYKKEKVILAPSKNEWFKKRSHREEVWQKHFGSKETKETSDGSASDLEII

[3] = biological target: T3, Mcm10 (LexA fusion, wild type) (S. cerevisiae) (UniProt P32354)
T3 sequence: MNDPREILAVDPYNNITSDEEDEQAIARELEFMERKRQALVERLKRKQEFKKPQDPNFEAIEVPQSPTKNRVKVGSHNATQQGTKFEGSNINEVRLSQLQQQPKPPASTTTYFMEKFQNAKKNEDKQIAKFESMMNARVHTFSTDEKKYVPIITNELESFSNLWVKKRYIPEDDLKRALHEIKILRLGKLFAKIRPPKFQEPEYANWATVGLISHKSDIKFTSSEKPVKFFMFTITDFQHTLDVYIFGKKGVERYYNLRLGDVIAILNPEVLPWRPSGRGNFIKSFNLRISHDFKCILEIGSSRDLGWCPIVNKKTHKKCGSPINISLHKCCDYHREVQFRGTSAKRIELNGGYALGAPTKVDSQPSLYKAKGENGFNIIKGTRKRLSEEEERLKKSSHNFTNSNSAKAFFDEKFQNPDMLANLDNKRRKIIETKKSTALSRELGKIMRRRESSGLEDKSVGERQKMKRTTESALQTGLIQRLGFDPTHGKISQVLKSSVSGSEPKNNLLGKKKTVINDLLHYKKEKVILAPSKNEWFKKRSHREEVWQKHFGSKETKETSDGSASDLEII

[4] = biological target: T4, Mcm10Δ100 (LexA fusion) (S. cerevisiae) (UniProt P32354)
T4 sequence: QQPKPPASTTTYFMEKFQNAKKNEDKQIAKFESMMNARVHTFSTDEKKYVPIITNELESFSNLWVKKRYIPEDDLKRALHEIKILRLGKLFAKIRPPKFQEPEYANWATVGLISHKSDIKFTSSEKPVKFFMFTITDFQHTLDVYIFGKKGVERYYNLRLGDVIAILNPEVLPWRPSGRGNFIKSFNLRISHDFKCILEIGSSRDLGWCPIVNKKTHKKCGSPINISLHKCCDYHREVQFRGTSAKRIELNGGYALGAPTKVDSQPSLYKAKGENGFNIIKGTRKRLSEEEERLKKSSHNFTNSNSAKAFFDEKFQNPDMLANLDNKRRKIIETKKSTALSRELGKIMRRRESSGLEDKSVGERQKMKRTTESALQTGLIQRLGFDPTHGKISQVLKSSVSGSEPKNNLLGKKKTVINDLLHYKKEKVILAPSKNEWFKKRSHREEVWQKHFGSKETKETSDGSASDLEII

[5] = biological target: T5, Mcm10Δ120 (LexA fusion) (S. cerevisiae) (UniProt P32354)
T5 sequence: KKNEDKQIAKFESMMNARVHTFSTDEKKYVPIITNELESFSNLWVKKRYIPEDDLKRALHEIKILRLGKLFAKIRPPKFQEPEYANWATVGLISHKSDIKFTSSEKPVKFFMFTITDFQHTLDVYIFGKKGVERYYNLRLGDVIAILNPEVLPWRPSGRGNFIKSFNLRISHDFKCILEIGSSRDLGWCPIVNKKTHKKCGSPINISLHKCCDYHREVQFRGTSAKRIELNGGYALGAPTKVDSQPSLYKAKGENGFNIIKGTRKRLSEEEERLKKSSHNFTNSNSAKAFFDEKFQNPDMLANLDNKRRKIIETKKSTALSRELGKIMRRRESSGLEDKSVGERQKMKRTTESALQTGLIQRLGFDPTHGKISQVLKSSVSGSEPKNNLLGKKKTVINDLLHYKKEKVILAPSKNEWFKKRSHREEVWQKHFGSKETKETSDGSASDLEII

Measured: binding

B1: Mec3 (pACT2 fusion, wild type) (protein, UniProt Q02574 1-474)
chain: MKLKLIVNGCEAPDDYKLLRTTINTVASLRKTAILRFNSERLTIISTPKSSLNSSNNGTILRGDTGQLWCTIPHDVFRLYTVISARELNTITMECNCDSLLSVFKRYDRVMNQGSSSNMTIKLQSMPEWNTNNGTLSGGTAGGVDTTSKPNPICALGITFEEIVHTSGPNDAIVMNGGVDEHNGLPTTVGTGNLLASNKVIMHSFKVPVKLLFRAQDTRIQEPMINYIQLMMYKLPPISGEFGSAFHGFIRRVERYSNVNHIHLMGVKKKEHGNEGDDVELKIIVNELDWHLEICWNGPLDSVIQRQEGLTDNPSQNQHIDTDGRQEEGSLPIIEADKPMSSLYTNTRDREMEENIRYDEDLLRIEDSSIADTRGNIYTADTSGDTEFNDISVMVEKAEQESSSTHEVIIRCKDWKVCSKLYAAFEEVVLAISHDESCVFHCSLDRGSLEDSEDVEKPRERGQIIYYIARSKGL
binds: all assays above
